This is an account of results in PubChem BioAssay AID1347423 (Functional Genomics Laboratory (NCATS/FGL), 2020).

In all, about 52,000 sequences went through this assay and about 210 (0.4%) were called active.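 The calls were made as follows: active = gene whose silencing raises cell survival under the drug, median off-target-corrected z-score across its silencing RNAs 2 or more; inactive = the rest.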 The list shows a part of the results.

This assay is described as follows: Resistance to Poly (ADP-Ribose) Polymerase inhibitor: Gene Identification via Genome-wide siRNA Screen. The note with it: mouse BRCA2 R2336H ES cells, olaparib, CellTiter-Glo viability; stronger effect = higher value. In short, it runs like this:
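Genome-wide siRNA screen (3 siRNAs/gene, 20 nM) in mouse ES cells carrying hypomorphic BRCA2 R2336H; olaparib 500 nM added 48 h post-transfection, CellTiter-Glo viability 72 h later. Normalized to plate-median negative control; MAD z-scores, gene median, seed-adjusted.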
On the technique in general: Cellular ATP, detected with luciferase, serves as a proxy for viable cell number.
In the case of GCGAGAGAUUCUUUCCCUGTT against Traf6, the z-score was inactive: -0.675. The value for “GGGACUUUUUUUCAAACACTT against 2900026A02Rik” was inactive: 0.273. For the sequence CGGCAGUCAGCAAAACAAATT against Pnpt1, the z-score was inactive: 0.259. Consider GCAGAUUGCAUCGGAAGAATT against BC061237, for which the z-score is inactive: -0.551. The value for GGGAAACCACAGUAGUCUGTT against Gyk was inactive: 0.391; that for “GCUCAAUGCUUUCUUGUCATT against 0610010F05Rik” was inactive: -0.444; that for GGAAAUUCUGGCAUAAAUUTT against Cd86 was inactive: -0.473.

GGUAACAAAUAAAGGAUACTT against Dgke: the z-score is inactive: 0.833. As for “CCUGGUUAGAGCAAGGAUGTT against 2900084M01Rik”, the z-score was inactive: 1.49.

Turning to “GGCCGUGAUGCUAGAGAACTT against 2810405K07Rik”, the z-score was inactive: -0.355. As to CCACACUUUUCAGUAUAAUTT against AI461788, the z-score is inactive: -0.6. Next, GGAACACAACUUCCUGUUCTT against BC037034: inactive: -0.707; GCAAUUCGAUUGAAGAUCUTT against Aoc3: inactive: 0.978; CCCUACUCCUCAGAACUUATT against Tbc1d10: inactive: 2.05.

Regarding GGUCCCUACAGGGAACAAATT against Trim10, the z-score is inactive: -1.52.

With “GCCAUUAAUCUCACAUGUATT against A930001N09Rik”, the z-score is inactive: -0.871.

“GGGAAGUCAAAGAAGAAUGTT against 2010106E10Rik”: the z-score is inactive: -0.647. For GCCGUUUAUCCUAUGAACUTT against Fign, the z-score was inactive: 0.386.

GGAUUCUCAUGAUUGUAAATT against BC016423: the z-score was inactive: 0.0859. Next, GGUUCAAGAGGAGACUACUTT against BC005624: inactive: -2.15.

As to GGCACUCAGUUCUUACCAGTT against BC029214, the z-score is inactive: -0.979. On to GGAUGGCUACAUUGACUUCTT against Guca1a, for which the z-score is inactive: -0.673. Next, GGAGGUCAAAGUAAACUGGTT against Tial1: inactive: -2.28. Consider GCCAGUUUACACCAGAGUCTT against Tecta, for which the z-score was inactive: -0.72. Next, GGUGUUUAAGGAUGAACAATT against L3mbtl3: inactive: -0.264. The value for “GGUGUAAAGGAAAGAAGAATT against 0610005I04” was inactive: -2.21; that for GGCAUUUACCAAGUUCCUGTT against Olfr522 was inactive: 0.214; that for “CGAUCCUCAUCUUUAUAUATT against D430020F16” was inactive: 0.296.

In the case of GCGGGAAAAUGAGACCAAATT against Bin3, the z-score is inactive: 0.463.

On to CUUCUUGGUGGGUCUGACUTT against Taar7e, for which the z-score was inactive: -1.64.

For the sequence GGAUAACCACGACAAAAUATT against Ttc7, the z-score is inactive: -0.209. The value for GGCCACUUUACUGUAGCUGTT against LOC381062 was inactive: 0.316; that for GCUCUUCUUCUUCUCCUUGTT against Olfr1411 was inactive: 0.3. Regarding GGUAGUCAUCAGCUACUUCTT against Slc31a1, the z-score was inactive: 2.12. As to GCACAGCUCUACAUAAUUUTT against Olfr312, the z-score is inactive: -1.11. Regarding GGACAAUUACUCCAAAAUUTT against Tnfsf10, the z-score is inactive: 0.0656. On to “GGAAAGAGGAAGAUAAAGUTT against 2310002L09Rik”, for which the z-score is inactive: -0.113. Next, GGAAAUGUCUUGUCACUAATT against Bzw1: inactive: 0.0868. For GGUCUUCCGAGAAGGUUAATT against Chst4, the z-score is inactive: 0.0912. For GGUCCACUAAGAAGACAUATT against Fibcd1, the z-score was inactive: 0.978. Next, “GGAGGAUAAGGAUGUCUCATT against A330021E22Rik”: inactive: 0.827; GUCCAGAUGGCUAAUUCUATT against Rpl23a: inactive: -3.2. As for “GCAUUAUCAGAACCAAGGGTT against 4930451F05Rik”, the z-score is inactive: -1.02. The value for GUUUAUCCUUAUGGGUUUATT against Olfr456 was inactive: 0.786; that for GGAAAUGGCACAAGAAGUCTT against Tslp was inactive: -0.131; that for GGCUAACAACUUCUACAUCTT against Wasf3 was inactive: -0.652.

As to “GGAACUAACCAACGACUAATT against 2610019F03Rik”, the z-score is inactive: -0.643.

Take GGUGCUGUGUAAUCACCGATT against Psmc2: the z-score is inactive: -0.6. Next, CCUCAUAUAUCCCUAAUUATT against Camk1g: inactive: 0.254; CCCAAACACCAACCAACUGTT against Unc93a: inactive: -2.13. The value for GCAAGUAUACACCUCUCAATT against Slc6a12 was active: 2.24; that for GAUCCUUUCCUUCUUCCUCTT against Olfr1086 was inactive: -0.0159. On to GGGCUAUCUUCUGAUUGGCTT against Zp3r, for which the z-score is inactive: 0.633. On to “CGUCAAAGGAGACAGCUUUTT against 1810017N16Rik”, for which the z-score was inactive: -0.603.

In the case of GGAGGUCAGAAGGUGUGUUTT against Rad52, the z-score is inactive: -1.41. Take GGAAAAGGGUAAACAAACATT against Car13: the z-score was inactive: 2.77.

With GGAUUUCAGCUUCCAUUUUTT against Eif2b2, the z-score was inactive: 0.205. Consider “CCACGGAUACUUUGAACAUTT against 1810054O13Rik”, for which the z-score is inactive: -0.467. Consider GCAUAAUUCAGUUGAUUACTT against LOC382105, for which the z-score was inactive: 1.49. In the case of GGAUAGCAGCUGAGUUUUATT against Asb5, the z-score is inactive: 0.499. Turning to GGCCUCCUAUAGACGGGAUTT against Vdac3, the z-score is inactive: -0.623. The value for GGAGGAAGAAAACAUCUCATT against Msh3 was inactive: -0.365; that for GGGAAUGGCUAAUGUUUAUTT against Stk38l was inactive: -1.09. The value for GCUAUUUCAUUGGUUGGCUTT against Odf4 was inactive: 0.455; that for GCAACGAAGACAAAUUAUUTT against Mid1 was inactive: 0.623; that for GGAGGCUGUUGUGGAUCUUTT against Acin1 was inactive: -2.13. On to GGGUUGGAUAGAAUAUUGUTT against Xkh, for which the z-score was inactive: 0.135. Consider CGGUGGCAAAAUGAGAAGUTT against Cd79a, for which the z-score was inactive: -0.334. Consider GGACUACGCAGUCUCUACATT against Ddah1, for which the z-score is inactive: 0.741. Next, CCCAGGACAUCGUCACAGATT against Prkx: inactive: -1.7. In the case of GUAGUAACCAGAUCUUAUATT against V1rc2, the z-score is inactive: -0.0654. In the case of GCUUGUGACUUAGAUUCUUTT against Rab8b, the z-score is inactive: -0.428. The value for AUCAGGGAUCCUAACAUCATT against Ly6c was inactive: 1.48; that for GGACCACCUGAAGAACCACTT against Plagl1 was inactive: -0.375. The value for CCAAGAUAUCGACUGAUAUTT against AI159731 was inactive: -0.437; that for GCAAGAAAUGGACCGGUAGTT against Timm17a was inactive: -1.22; that for GGUACACCAGGAAUAGACGTT against Prlpe was inactive: -0.216. For the sequence GCUCAUUGCACUUGCCAAGTT against Tcea2, the z-score is inactive: 0.978. The value for CCUAAACUCACUCUUGUGUTT against Chrna6 was inactive: -0.0561; that for CCUGGCUAAGCUAGAGAAUTT against BC017634 was inactive: -0.551; that for GGUGUUCAGGAGAUGAUGCTT against Ris2 was inactive: 0.835. For the sequence GGGUCCUAAGGGAUUUAUUTT against Klf16, the z-score was inactive: 0.377. Consider CCAUUAACGUAAAUUCUGUTT against AI505652, for which the z-score was inactive: 0.701. With “CGGUUACUUGCUCUCCUCCTT against 1700091F14Rik”, the z-score was inactive: 0.893. Next, “GCACUUCGCGCAGUCUUCUTT against 6430526N21Rik”: inactive: -1.04; GGUGGCCAUUCUUCUGUUCTT against Dnclc1: inactive: -0.201; CCAUGAGGCGUAUCAUUUUTT against Phlda3: inactive: 1.57. For GCAAAUUAUUGAGAGCCUGTT against Prlpm, the z-score was inactive: -1.22.

Take AGCAGGAGUUCGAACAUGGTT against Hoxb4: the z-score was inactive: -1.21. Next, “CCUACUCGUCUCUUUCACCTT against 0610007A15Rik”: inactive: 0.85.

In the case of GCCUGCACUGUUGAACUAGTT against Tomm40l, the z-score is inactive: -0.012.

GCUUACCGAUGGGAUGACGTT against Omd: the z-score was inactive: 0.0811.

For GGUUUGCUGAGAAAUUAACTT against Btg3, the z-score is inactive: 0.682. As for CCUUAGCUGUCCUUGUGGUTT against LOC545475, the z-score is inactive: 0.496. The value for GUGAUGAGAGGCCUUUCACTT against V1rc4 was inactive: 1.75; that for CCCAUUAUUGGCACUACAATT against LOC434285 was inactive: -0.98. Next, GGAACAGAUACAGAAAUCCTT against Cstf2: inactive: 0.739; GCCUUCCGCUACCUUCUUATT against Ccl19: inactive: 1.08; “GCUCUUACCACUGAUAGGATT against 6330579B17Rik”: inactive: 0.111.

In the case of “GGAAGGGUAUAGCCAGUACTT against 1500006O09Rik”, the z-score is inactive: 0.896. Regarding GGAGUUUCCUAGUAAGGCCTT against LOC432552, the z-score was inactive: 1.16. Next, “GCAAUUACCUCUGAAAGGCTT against 1700011H14Rik”: inactive: 0.742. In the case of GGUUUCUGAACAAAGCCAGTT against Mospd1, the z-score was inactive: -1.28.

Take GGGUUCUAUAGUCUCCACCTT against LOC544763: the z-score is inactive: 0.642.
